# Laboratory results as given in the supplement of paper PMC12889115.
# The list shows a part of the results. These are raw signals, not scaled to a control.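 First-pass screen: polymyxin B was added at a level that permeabilizes the Salmonella outer membrane while sparing the inner membrane. DMSO wells, with and without polymyxin B, defined maximum growth. Because plates differed from one another, each plate's data were ranked separately and the compounds with the lowest OD600 were carried forward as hits.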
# System: Salmonella enterica serovar Typhimurium SL1344
# Assay: bacterial growth OD600 after 18 h with compound and polymyxin B; higher = more bacterial growth (less inhibition)
# Conditions: 50 µM, Mueller-Hinton broth
Structure (SMILES),bacterial growth OD600 (polymyxin B 1 µg/mL),bacterial growth OD600 (polymyxin B 0.75 µg/mL)
COCCc1nc2ccc(C(=O)N3CCCC3c3nc4ccc(C)cc4[nH]3)cc2o1 (stereo unspecified),0.893,
CSc1ccc(CC2(CCC(=O)N(C)Cc3cccc(-n4nc(C)cc4C)c3)CCC(=O)N2)cc1 (stereo unspecified),,0.817
CC(C)C(=O)N1CCC2(CCCN(Cc3cccc(F)c3F)C2=O)C1 (stereo unspecified),0.846,
COc1cc(CN2CCc3[nH]nc(-c4ccccc4F)c3C2)cc2c1OCO2,,0.736
COc1ccc(OC2CCN(c3nncc(-c4c(OC)cccc4OC)n3)CC2)cc1,0.01,
O=C(NCC1Cc2c(F)ccc(-c3ccncc3)c2O1)c1cc(Cl)ccc1F (stereo unspecified),,0.002
C=C(C)CN(CC)C(=O)CC1(c2ccccc2OC)CC(=O)N(CCCOC)C1=O (stereo unspecified),,0.785
COCC(=O)Nc1cc(C(=O)N2CCC(c3ccncc3)CC2)c2c(c1)nc(C1CCC1)n2C,,0.932
COc1ccccc1C1(CC(=O)N2CCC(Cc3ccccc3)CC2)CC(=O)N(C)C1=O (stereo unspecified),,0.411
CN(CC1COc2ccccc2O1)C(=O)c1cn(Cc2ccccc2Cl)nn1 (stereo unspecified),1.01,
O=C(c1ccc(NCC2CCCOC2)nc1)N1CCC(CCn2cccn2)CC1 (stereo unspecified),0.962,
COc1ccc(F)c(CNC2CCCc3nc(N4CCC(CO)CC4)ncc32)c1 (stereo unspecified),,0.875
COc1cc(NC(=O)CCC2CCCN(C(=O)c3csnn3)C2)cc(OC)c1 (stereo unspecified),,0.812
COCCCN1C(=O)CC(CC(=O)N2CC3CC4CC(C3)CC2C4)(c2ccccc2OC)C1=O (stereo unspecified),,0.7
O=C(c1cn2ccccc2n1)N1CCOC(CC2CCCCC2)C1 (stereo unspecified),,0.863
Cc1nnc(SCC(=O)NC2CC(C)(C)Cc3c2cnn3-c2ccc(F)cc2)o1 (stereo unspecified),0.761,

Structure (SMILES),bacterial growth OD600 (polymyxin B 1 µg/mL),bacterial growth OD600 (polymyxin B 0.75 µg/mL)
Cc1nc(N2CCC(NC3(c4ccccc4)CC3)CC2)nc2ccc(F)cc12,,0.019
O=C(CCn1cncn1)N1CCc2[nH]nc(-c3ccc(C(F)(F)F)cc3)c2C1,,0.898
CN(CC1Cc2ccccc2O1)C(=O)c1ccc(-n2cc(NC(=O)c3cccnc3)cn2)cc1 (stereo unspecified),,0.826
COc1cc(CN2CCN(Cc3cc(F)cc(F)c3)CC2CCO)cc(OC)c1 (stereo unspecified),0.899,
Cc1ccc(-n2ncc3c2CC(C)(C)CC3NC(=O)CCc2cn[nH]c2)cc1 (stereo unspecified),,0.75
O=C(NCc1cccnc1Oc1ccccc1)C1CCOC1 (stereo unspecified),0.957,
COc1ccccc1CN(C)C(=O)c1coc(COc2ccccc2)n1,0.656,
Cc1cc(C)n(CCNC(=O)c2ccccc2OC2CCN(S(C)(=O)=O)CC2)n1,0.815,
Cc1cc(CNc2ccc(C(=O)NCCC3COc4ccccc4O3)cn2)no1 (stereo unspecified),0.969,
Cc1ccc(OCc2cc(C(=O)N(C)CCn3nc(C)cc3C)no2)cn1,0.88,
COc1cc(CC2(CCC(=O)N3CCOc4ccc(Cl)cc4C3)CCC(=O)N2)ccc1F (stereo unspecified),,0.775
COc1ccccc1CCN1CCCC(CN(C)C(=O)CCC(F)(F)F)C1 (stereo unspecified),0.975,
Cc1cnc(SCCN2CCOCC2)nc1C1CCCN(C(=O)CCc2scnc2C)C1 (stereo unspecified),,0.938
C#Cc1cccc(C(=O)N2CCC3(CC2)c2ccccc2[C@@H](NC(=O)COc2ccccc2)[C@@H]3OC)c1,,0.097
C=C(C)CNC(=O)C1CCCN(C2CCN(C3Cc4ccccc4C3)CC2)C1 (stereo unspecified),,1.05

# A different layout for part of the listing above.
Structure (SMILES)	bacterial growth OD600 (polymyxin B 1 µg/mL)	bacterial growth OD600 (polymyxin B 0.75 µg/mL)
COc1ccccc1CCN1CCCC(CN(C)C(=O)CCC(F)(F)F)C1 (stereo unspecified)	0.975	
C=C(C)CNC(=O)C1CCCN(C2CCN(C3Cc4ccccc4C3)CC2)C1 (stereo unspecified)		1.05
